This passage reports binding results from article PMC7670567.

Sequences of proteins named here, by UniProt entry; tags and fusion partners are left off.
UniProt Q15327: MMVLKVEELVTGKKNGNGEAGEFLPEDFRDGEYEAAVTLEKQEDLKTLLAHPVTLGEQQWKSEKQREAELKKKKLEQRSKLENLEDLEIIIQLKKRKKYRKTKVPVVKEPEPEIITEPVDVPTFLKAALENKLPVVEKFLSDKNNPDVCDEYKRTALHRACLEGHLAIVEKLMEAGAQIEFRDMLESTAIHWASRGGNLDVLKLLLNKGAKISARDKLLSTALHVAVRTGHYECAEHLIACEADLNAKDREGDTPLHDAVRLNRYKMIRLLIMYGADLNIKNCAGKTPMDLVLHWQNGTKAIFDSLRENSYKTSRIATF
UniProt O43491: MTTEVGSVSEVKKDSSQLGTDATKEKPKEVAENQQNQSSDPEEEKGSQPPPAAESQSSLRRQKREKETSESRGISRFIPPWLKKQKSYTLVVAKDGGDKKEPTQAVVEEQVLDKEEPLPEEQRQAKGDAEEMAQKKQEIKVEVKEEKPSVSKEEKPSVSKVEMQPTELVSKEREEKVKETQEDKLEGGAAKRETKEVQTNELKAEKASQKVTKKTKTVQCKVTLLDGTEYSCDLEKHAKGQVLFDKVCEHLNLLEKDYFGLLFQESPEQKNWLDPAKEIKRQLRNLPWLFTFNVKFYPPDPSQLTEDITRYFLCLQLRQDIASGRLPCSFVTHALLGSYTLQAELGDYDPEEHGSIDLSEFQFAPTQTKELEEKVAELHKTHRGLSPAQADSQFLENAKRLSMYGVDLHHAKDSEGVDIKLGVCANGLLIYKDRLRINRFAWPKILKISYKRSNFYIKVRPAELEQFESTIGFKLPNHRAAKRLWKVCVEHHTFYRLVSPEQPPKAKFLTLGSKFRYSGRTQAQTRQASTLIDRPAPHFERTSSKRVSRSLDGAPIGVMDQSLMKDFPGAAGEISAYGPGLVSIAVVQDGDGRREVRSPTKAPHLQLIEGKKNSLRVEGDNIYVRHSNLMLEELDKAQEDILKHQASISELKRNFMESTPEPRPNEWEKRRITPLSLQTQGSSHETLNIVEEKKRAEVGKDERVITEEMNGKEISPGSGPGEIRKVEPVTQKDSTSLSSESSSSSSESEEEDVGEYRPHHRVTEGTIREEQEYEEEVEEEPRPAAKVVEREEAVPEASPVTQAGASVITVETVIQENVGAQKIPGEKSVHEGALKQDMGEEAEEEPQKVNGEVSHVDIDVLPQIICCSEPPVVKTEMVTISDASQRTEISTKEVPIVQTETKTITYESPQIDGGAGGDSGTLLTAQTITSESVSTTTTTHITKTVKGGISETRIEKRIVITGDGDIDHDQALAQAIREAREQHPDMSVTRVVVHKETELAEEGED
UniProt Q01484: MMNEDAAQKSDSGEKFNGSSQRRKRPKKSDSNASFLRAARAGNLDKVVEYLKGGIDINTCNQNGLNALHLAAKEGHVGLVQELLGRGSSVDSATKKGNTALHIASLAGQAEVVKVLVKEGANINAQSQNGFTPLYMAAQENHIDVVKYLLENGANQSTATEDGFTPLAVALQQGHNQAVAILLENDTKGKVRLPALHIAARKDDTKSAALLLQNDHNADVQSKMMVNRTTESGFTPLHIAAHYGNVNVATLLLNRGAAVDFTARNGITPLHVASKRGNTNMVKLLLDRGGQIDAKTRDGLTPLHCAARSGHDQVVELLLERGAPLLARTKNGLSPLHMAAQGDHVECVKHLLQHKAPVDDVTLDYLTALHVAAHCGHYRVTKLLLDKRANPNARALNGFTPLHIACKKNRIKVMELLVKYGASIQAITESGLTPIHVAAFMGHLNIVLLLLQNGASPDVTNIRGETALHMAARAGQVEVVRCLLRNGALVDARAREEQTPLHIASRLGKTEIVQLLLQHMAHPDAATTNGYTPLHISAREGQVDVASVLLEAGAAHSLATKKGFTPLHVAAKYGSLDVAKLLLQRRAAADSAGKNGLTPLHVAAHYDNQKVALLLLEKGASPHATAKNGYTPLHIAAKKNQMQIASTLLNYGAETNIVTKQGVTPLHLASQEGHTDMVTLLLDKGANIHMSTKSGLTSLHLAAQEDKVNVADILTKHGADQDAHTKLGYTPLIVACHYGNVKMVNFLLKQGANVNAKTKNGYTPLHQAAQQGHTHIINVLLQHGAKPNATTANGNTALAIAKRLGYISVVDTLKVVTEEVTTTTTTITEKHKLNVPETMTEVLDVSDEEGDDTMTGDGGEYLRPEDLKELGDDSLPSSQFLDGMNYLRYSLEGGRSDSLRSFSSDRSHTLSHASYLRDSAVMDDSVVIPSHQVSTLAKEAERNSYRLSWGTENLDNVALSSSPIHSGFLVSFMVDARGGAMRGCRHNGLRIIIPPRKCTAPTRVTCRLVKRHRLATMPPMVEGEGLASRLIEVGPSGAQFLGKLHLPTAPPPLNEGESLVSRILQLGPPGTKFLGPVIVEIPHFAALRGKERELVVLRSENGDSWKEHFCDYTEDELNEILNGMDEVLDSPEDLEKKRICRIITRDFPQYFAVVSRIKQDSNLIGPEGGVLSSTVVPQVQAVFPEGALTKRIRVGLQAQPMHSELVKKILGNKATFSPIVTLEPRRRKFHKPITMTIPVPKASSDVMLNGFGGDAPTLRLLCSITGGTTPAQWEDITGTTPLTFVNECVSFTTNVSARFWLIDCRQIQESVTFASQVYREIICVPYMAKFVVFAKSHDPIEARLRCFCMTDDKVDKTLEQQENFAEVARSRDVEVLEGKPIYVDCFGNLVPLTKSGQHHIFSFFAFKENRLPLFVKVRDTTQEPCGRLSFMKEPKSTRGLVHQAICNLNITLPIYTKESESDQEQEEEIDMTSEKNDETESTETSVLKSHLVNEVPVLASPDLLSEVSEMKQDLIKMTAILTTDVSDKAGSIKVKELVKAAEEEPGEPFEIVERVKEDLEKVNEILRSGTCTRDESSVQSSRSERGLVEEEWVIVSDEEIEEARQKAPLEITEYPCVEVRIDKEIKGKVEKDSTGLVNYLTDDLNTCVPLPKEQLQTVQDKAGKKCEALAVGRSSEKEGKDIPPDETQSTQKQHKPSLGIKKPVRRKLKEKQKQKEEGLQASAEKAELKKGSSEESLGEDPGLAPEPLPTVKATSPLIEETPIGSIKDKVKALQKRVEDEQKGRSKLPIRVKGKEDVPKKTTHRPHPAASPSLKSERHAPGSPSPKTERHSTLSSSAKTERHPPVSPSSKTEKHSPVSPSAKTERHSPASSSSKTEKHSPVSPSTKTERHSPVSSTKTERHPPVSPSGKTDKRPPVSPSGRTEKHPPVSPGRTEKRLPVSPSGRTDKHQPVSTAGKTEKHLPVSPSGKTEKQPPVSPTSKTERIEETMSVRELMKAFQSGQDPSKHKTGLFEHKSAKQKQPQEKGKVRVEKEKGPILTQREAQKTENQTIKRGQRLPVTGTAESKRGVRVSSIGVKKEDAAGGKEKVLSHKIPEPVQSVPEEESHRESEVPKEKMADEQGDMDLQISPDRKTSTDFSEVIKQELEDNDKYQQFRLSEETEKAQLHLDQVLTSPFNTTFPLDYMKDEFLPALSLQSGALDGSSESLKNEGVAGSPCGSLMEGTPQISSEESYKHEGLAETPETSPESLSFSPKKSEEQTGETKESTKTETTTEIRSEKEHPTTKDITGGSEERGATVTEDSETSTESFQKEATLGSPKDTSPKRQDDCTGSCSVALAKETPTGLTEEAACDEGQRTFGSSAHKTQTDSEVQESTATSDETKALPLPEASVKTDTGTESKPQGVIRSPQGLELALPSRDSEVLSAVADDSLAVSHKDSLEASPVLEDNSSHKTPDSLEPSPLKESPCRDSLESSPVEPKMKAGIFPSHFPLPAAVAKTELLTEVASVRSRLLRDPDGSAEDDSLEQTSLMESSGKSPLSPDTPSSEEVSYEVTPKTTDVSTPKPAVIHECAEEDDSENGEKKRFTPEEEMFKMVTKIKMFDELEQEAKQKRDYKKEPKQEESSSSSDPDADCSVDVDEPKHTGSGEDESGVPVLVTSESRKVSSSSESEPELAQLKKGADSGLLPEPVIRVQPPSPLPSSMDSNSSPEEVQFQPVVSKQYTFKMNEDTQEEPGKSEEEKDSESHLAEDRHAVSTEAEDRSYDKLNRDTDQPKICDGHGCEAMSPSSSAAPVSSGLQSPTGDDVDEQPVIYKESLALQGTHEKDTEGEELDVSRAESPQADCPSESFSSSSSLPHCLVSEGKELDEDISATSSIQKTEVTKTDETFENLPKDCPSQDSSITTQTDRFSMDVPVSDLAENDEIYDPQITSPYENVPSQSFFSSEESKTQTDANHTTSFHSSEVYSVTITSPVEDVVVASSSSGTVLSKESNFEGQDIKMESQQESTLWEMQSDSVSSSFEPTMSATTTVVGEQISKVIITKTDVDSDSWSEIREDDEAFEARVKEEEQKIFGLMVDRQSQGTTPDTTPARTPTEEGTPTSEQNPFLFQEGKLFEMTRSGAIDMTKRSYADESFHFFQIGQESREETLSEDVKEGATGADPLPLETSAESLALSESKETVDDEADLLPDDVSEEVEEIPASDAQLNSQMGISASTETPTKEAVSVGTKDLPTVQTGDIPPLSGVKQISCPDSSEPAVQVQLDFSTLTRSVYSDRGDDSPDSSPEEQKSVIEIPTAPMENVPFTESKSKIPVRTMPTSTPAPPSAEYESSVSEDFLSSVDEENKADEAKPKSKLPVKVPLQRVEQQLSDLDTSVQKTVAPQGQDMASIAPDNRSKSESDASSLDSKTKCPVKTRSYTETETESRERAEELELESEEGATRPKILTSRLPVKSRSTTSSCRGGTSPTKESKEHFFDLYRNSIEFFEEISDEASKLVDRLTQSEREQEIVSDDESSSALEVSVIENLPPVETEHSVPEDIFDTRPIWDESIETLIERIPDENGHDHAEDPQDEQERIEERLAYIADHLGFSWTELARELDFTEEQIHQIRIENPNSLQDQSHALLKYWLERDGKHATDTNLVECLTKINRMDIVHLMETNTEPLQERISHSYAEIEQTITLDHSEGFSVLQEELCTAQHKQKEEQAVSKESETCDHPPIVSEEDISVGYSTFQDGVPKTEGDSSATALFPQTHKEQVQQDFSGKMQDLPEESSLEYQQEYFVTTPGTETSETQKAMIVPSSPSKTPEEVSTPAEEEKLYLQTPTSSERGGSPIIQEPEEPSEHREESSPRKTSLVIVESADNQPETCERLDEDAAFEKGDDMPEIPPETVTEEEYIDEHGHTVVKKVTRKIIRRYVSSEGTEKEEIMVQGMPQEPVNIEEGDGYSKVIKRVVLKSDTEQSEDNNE
UniProt Q9Y4D1: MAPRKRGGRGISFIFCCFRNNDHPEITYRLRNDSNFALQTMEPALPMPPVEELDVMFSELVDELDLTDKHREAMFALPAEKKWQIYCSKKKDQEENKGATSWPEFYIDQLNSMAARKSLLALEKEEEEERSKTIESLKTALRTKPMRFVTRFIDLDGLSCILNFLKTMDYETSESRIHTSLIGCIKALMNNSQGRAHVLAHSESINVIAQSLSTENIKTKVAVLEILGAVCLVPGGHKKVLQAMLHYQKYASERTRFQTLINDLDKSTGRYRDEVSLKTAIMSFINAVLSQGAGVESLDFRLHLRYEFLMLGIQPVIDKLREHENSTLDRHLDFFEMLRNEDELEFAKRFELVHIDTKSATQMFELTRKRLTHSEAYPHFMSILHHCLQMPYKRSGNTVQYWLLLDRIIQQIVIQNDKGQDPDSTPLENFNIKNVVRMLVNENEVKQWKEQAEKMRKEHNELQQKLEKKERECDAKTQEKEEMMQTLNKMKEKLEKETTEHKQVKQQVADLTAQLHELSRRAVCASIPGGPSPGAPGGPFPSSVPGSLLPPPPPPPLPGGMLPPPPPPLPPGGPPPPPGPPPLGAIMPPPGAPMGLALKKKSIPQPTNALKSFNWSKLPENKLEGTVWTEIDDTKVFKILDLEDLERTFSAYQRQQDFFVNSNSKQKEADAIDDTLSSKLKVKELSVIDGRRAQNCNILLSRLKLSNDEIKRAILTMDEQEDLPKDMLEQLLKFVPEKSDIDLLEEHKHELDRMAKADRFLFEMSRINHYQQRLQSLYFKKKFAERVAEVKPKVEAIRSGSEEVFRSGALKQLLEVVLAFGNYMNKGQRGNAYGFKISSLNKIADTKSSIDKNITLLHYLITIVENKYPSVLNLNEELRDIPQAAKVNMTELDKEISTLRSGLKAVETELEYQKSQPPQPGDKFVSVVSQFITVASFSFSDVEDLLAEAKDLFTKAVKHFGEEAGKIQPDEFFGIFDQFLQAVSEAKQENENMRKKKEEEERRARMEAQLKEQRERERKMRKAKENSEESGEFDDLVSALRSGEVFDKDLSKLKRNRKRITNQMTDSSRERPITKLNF

Results are given in words; binding and its absence hold for the method and conditions named. For some assays here: In cells and extracts the contact can be indirect. Some results given as binding are weak or reduced against the parent protein; the word gives no strength. For some assays here: Tags and fused reporters may be left off the sequences shown.

B1: crystallin, α B (CRYAB), tagged construct (protein, UniProt P02511 1-175)
chain: MDIAIHHPWIRRPFFPFHSPSRLFDQFFGEHLLESDLFPTSTSLSPFYLRPPSFLRAPSWFDTGLSEMRLEKDRFSVNLDVKHFSPEELKVKVLGDVIEVHGKHEERQDEHGFISREFHRKYRIPADVDPLTITSSLSSDGVLTVNGPRKQVSGPERTIPITREEKPAVTAAPKK
B2: SLC25A13, tagged construct (protein, UniProt Q9UJS0 1-675)
chain: MAAAKVALTKRADPAELRTIFLKYASIEKNGEFFMSPNDFVTRYLNIFGESQPNPKTVELLSGVVDQTKDGLISFQEFVAFESVLCAPDALFMVAFQLFDKAGKGEVTFEDVKQVFGQTTIHQHIPFNWDSEFVQLHFGKERKRHLTYAEFTQFLLEIQLEHAKQAFVQRDNARTGRVTAIDFRDIMVTIRPHVLTPFVEECLVAAAGGTTSHQVSFSYFNGFNSLLNNMELIRKIYSTLAGTRKDVEVTKEEFVLAAQKFGQVTPMEVDILFQLADLYEPRGRMTLADIERIAPLEEGTLPFNLAEAQRQKASGDSARPVLLQVAESAYRFGLGSVAGAVGATAVYPIDLVKTRMQNQRSTGSFVGELMYKNSFDCFKKVLRYEGFFGLYRGLLPQLLGVAPEKAIKLTVNDFVRDKFMHKDGSVPLAAEILAGGCAGGSQVIFTNPLEIVKIRLQVAGEITTGPRVSALSVVRDLGFFGIYKGAKACFLRDIPFSAIYFPCYAHVKASFANEDGQVSPGSLLLAGAIAGMPAASLVTPADVIKTRLQVAARAGQTTYSGVIDCFRKILREEGPKALWKGAGARVFRSSPQFGVTLLTYELLQRWFYIDFGGVKPMGSEPVPKSRINLPAPNPDHVGGYKLAVATFAGIENKFGLYLPLFKPSVSTSKAIGGGP
B3: Aurora A kinase (AURKA), expression construct (protein, UniProt O14965 1-403)
chain: MDRSKENCISGPVKATAPVGGPKRVLVTQQFPCQNPLPVNSGQAQRVLCPSNSSQRIPLQAQKLVSSHKPVQNQKQKQLQATSVPHPVSRPLNNTQKSKQPLPSAPENNPEEELASKQKNEESKKRQWALEDFEIGRPLGKGKFGNVYLAREKQSKFILALKVLFKAQLEKAGVEHQLRREVEIQSHLRHPNILRLYGYFHDATRVYLILEYAPLGTVYRELQKLSKFDEQRTATYITELANALSYCHSKRVIHRDIKPENLLLGSAGELKIADFGWSVHAPSSRRTTLCGTLDYLPPEMIEGRMHDEKVDLWSLGVLCYEFLVGKPPFEANTYQETYKRISRVEFTFPDFVTEGARDLISRLLKHNPSQRPMLREVLEHPWITANSSKPSNCQNKESASKQS
B4: SLC25A11, tagged construct (protein, UniProt Q02978 1-314)
chain: MAATASAGAGGIDGKPRTSPKSVKFLFGGLAGMGATVFVQPLDLVKNRMQLSGEGAKTREYKTSFHALTSILKAEGLRGIYTGLSAGLLRQATYTTTRLGIYTVLFERLTGADGTPPGFLLKAVIGMTAGATGAFVGTPAEVALIRMTADGRLPADQRRGYKNVFNALIRITREEGVLTLWRGCIPTMARAVVVNAAQLASYSQSKQFLLDSGYFSDNILCHFCASMISGLVTTAASMPVDIAKTRIQNMRMIDGKPEYKNGLDVLFKVVRYEGFFSLWKGFTPYYARLGPHTVLTFIFLEQMNKAYKRLFLSG
B5: PDZK8, two-hybrid fusion (protein, UniProt Q8NEN9 1-1154)
chain: MGLLLMILASAVLGSFLTLLAQFFLLYRRQPEPPADEAARAGEGFRYIKPVPGLLLREYLYGGGRDEEPSGAAPEGGATPTAAPETPAPPTRETCYFLNATILFLFRELRDTALTRRWVTKKIKVEFEELLQTKTAGRLLEGLSLRDVFLGETVPFIKTIRLVRPVVPSATGEPDGPEGEALPAACPEELAFEAEVEYNGGFHLAIDVDLVFGKSAYLFVKLSRVVGRLRLVFTRVPFTHWFFSFVEDPLIDFEVRSQFEGRPMPQLTSIIVNQLKKIIKRKHTLPNYKIRFKPFFPYQTLQGFEEDEEHIHIQQWALTEGRLKVTLLECSRLLIFGSYDREANVHCTLELSSSVWEEKQRSSIKTVELIKGNLQSVGLTLRLVQSTDGYAGHVIIETVAPNSPAAIADLQRGDRLIAIGGVKITSTLQVLKLIKQAGDRVLVYYERPVGQSNQGAVLQDNFGQLEENFLSSSCQSGYEEEAAGLTVDTESRELDSEFEDLASDVRAQNEFKDEAQSLSHSPKRVPTTLSIKPLGAISPVLNRKLAVGSHPLPPKIQSKDGNKPPPLKTSEITDPAQVSKPTQGSAFKPPVPPRPQAKVPLPSADAPNQAEPDVLVEKPEKVVPPPLVDKSAEKQAKNVDAIDDAAAPKQFLAKQEVAKDVTSETSCPTKDSSDDRQTWESSEILYRNKLGKWTRTRASCLFDIEACHRYLNIALWCRDPFKLGGLICLGHVSLKLEDVALGCLATSNTEYLSKLRLEAPSPKAIVTRTALRNLSMQKGFNDKFCYGDITIHFKYLKEGESDHHVVTNVEKEKEPHLVEEVSVLPKEEQFVGQMGLTENKHSFQDTQFQNPTWCDYCKKKVWTKAASQCMFCAYVCHKKCQEKCLAETSVCGATDRRIDRTLKNLRLEGQETLLGLPPRVDAEASKSVNKTTGLTRHIINTSSRLLNLRQVSKTRLSEPGTDLVEPSPKHTPNTSDNEGSDTEVCGPNSPSKRGNSTGIKLVRKEGGLDDSVFIAVKEIGRDLYRGLPTEERIQKLEFMLDKLQNEIDQELEHNNSLVREEKETTDTRKKSLLSAALAKSGERLQALTLLMIHYRAGIEDIETLESLSLDQHSKKISKYTDDTEEDLDNEISQLIDSQPFSSISDDLFGPSESV
B6: RAI14, two-hybrid fusion (protein, UniProt Q9P0K7 1-980)
chain: MKSLKAKFRKSDTNEWNKNDDRLLQAVENGDAEKVASLLGKKGASATKHDSEGKTAFHLAAAKGHVECLRVMITHGVDVTAQDTTGHSALHLAAKNSHHECIRKLLQSKCPAESVDSSGKTALHYAAAQGCLQAVQILCEHKSPINLKDLDGNIPLLLAVQNGHSEICHFLLDHGADVNSRNKSGRTALMLACEIGSSNAVEALIKKGADLNLVDSLGYNALHYSKLSENAGIQSLLLSKISQDADLKTPTKPKQHDQVSKISSERSGTPKKRKAPPPPISPTQLSDVSSPRSITSTPLSGKESVFFAEPPFKAEISSIRENKDRLSDSTTGADSLLDISSEADQQDLLSLLQAKVASLTLHNKELQDKLQAKSPKEAEADLSFDSYHSTQTDLGPSLGKPGETSPPDSKSSPSVLIHSLGKSTTDNDVRIQQLQEILQDLQKRLESSEAERKQLQVELQSRRAELVCLNNTEISENSSDLSQKLKETQSKYEEAMKEVLSVQKQMKLGLVSPESMDNYSHFHELRVTEEEINVLKQDLQNALEESERNKEKVRELEEKLVEREKGTVIKPPVEEYEEMKSSYCSVIENMNKEKAFLFEKYQEAQEEIMKLKDTLKSQMTQEASDEAEDMKEAMNRMIDELNKQVSELSQLYKEAQAELEDYRKRKSLEDVTAEYIHKAEHEKLMQLTNVSRAKAEDALSEMKSQYSKVLNELTQLKQLVDAQKENSVSITEHLQVITTLRTAAKEMEEKISNLKEHLASKEVEVAKLEKQLLEEKAAMTDAMVPRSSYEKLQSSLESEVSVLASKLKESVKEKEKVHSEVVQIRSEVSQVKREKENIQTLLKSKEQEVNELLQKFQQAQEELAEMKRYAESSSKLEEDKDKKINEMSKEVTKLKEALNSLSQLSYSTSSSKRQSQQLEALQQQVKQLQNQLAECKKQHQEVISVYRMHLLYAVQGQMDEDVQKVLKQILTMCKNQSQKK

The first assay concerns the target tagged HAX1 (whole HAX1) (UniProt O00165). Put plainly: co-IP; HeLa cells co-transfected with tagged HAX1 and the tagged partner, lysed 24 h later in NP-40 buffer (10 mM Tris/Cl pH 7.5, 150 mM NaCl, 0.5 mM EDTA, 0.5% Nonidet P40); anti-FLAG M2 beads, anti-c-Myc magnetic beads or GFP-trap; Western blot.
B1: the binding result is recorded as “no binding”.

As to B2, the binding entry is recorded as “binds”.

In the case of B3, the binding entry is “binds”.

For the molecule B4, the binding result is given as “binds”.

Another assay concerns the target HCLS1-associated protein X-1 (HAX1), yeast two-hybrid baits and prey clones (human) (UniProt O00165). Put plainly: two-hybrid; automated high-throughput yeast two-hybrid system (Myrexis); 27 HAX1 baits screened, HAX1 also prey from 21 baits; nine libraries (brain, substantia nigra, hypothalamus, hippocampus, spleen, liver, colon, testis, breast cancer/prostate cancer).
As for “ANKRD1, two-hybrid fusion (from UniProt Q15327 1-319)”, the binding entry is recorded as “binds”.

In the case of “ANK3, two-hybrid fusion (from UniProt Q12955 1-4377)”, the binding entry is recorded as “binds”.

For “EPB41L2, two-hybrid fusion (from UniProt O43491 1-1005)”, the binding result is “binds”.

On to “ANK2, two-hybrid fusion (from UniProt Q01484 1-3957)”, for which the binding result is listed as “binds”.

“DAAM1, two-hybrid fusion (from UniProt Q9Y4D1 1-1078)”: the binding result is “binds”.

The next assay has the same target. The description is as above. This is another data set of the same source.
Regarding B5, the binding entry is on record as “binds”.

Consider B6, for which the binding result was “binds”.
